Among all 1,200 compounds or so, fewer than 10 were called active. Calls follow the shape of the dose curve; as a rule, active = well fitted curve in the direction sought with a large enough effect; inconclusive = small, poorly fitted or top-dose-only effect, or another doubt; inactive = no such curve, though single readings can be large or run the other way. The list shows a part of the results.
Assay: Confirmatory qHTS assay for inhibitors of Activation Induced Cytidine Deaminase (AID): UDG signals; also: 0% is about no effect
Conditions: UDG coupled enzyme activity counter-screen; at 115 µM (top of the series) unless noted
How it was run: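 UDG readout, a counterscreen: AID (1 uM, 4/3x) plus UDG (2 U/mL, 4/3x) preincubated 10 min with compound (7.32 nM - 114 uM final), then 4 h with DJC20/DJC23 substrates at room temperature; NaOH added, fluorescence read at 560/665 nm.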

Structure (SMILES)	activity change, negative = inhibition
COc1ccc(Cl)cc1NC(=O)CSc1nc(=O)n(Cc2ccco2)c2c1CCC2	inactive: -1.64%
Cc1cc(Nc2cccc(C(F)(F)F)c2)nc2ccc(NC(=O)Cc3ccc(Cl)cc3)cc12	inactive: -2.34%
C[N+](C)(CCCCCC[N+](C)(C)CCCN1C(=O)c2cccc3cccc(c23)C1=O)CCCN1C(=O)c2cccc3cccc(c23)C1=O	inactive: 15%
CC1(C)CC(=O)c2cc(C#N)c(=O)n(-c3ccc(Cl)cc3)c2C1	inactive: 2.6%
Cc1nc2c(C(=O)NCc3ccccc3)cnn2c(C)c1Cc1ccc(F)cc1	inactive: -4.98%
CCN1C(=O)c2ccccc2Sc2ccc(NC(=O)COc3ccc(Cl)cc3)cc21	inactive: -5.41%
CCCn1c(SCc2nc(-c3ccccc3C)no2)nnc1-c1ccc(Cl)cc1	inactive: -20.3%
Cc1cc(C)cc(Nc2nc3cc(Cl)c(Cl)cc3nc2-n2nc(C)cc2C)c1	inactive: 4.6%
COc1ccc(-c2coc3c2c(C)cc2oc(=O)c(CC(=O)O)c(C)c23)cc1	inactive: -15.3%
COc1cc2c(cc1OC)C(COc1ccc(F)cc1)N(C(=O)c1cccc(F)c1)CC2 (stereo not drawn)	inactive: -11.3%
Cc1cc(C)cc(NC(=O)Cn2nnc(C(=O)NCc3ccco3)c2N)c1	inactive: -4.65%
Cc1cccc(NC(=O)c2oc3c(c2C)-c2[nH]ncc2CC3)c1C	inactive: 4.38%
Cc1cccc(C)c1-n1ncc(C(=O)NCc2ccc3c(c2)OCO3)c1C1CCN(C(=O)OC(C)(C)C)CC1	inactive: -15.8%
COc1ccc(C(=O)NCCn2cc(SCC(=O)Nc3ccc(F)cc3)c3ccccc32)cc1	inactive: -6.79%
CCn1c(=O)cc(OCC(=O)N2CCN(c3cccc(Cl)c3)CC2)c2ccccc21	inactive: 5.57%
O=C(Nc1cccc(C(=O)Nc2ccc(S(=O)(=O)O)c3cc(S(=O)(=O)O)cc(S(=O)(=O)O)c23)c1)Nc1cccc(C(=O)Nc2ccc(S(=O)(=O)O)c3cc(S(=O)(=O)O)cc(S(=O)(=O)O)c23)c1	inactive: 2.4%
CCOc1ccccc1NC(=O)CSC1=Nc2ccccc2C2=NC(CC(=O)NCc3ccc4c(c3)OCO4)C(=O)N12 (stereo not drawn)	inactive: 1.12%
Cc1nn2c(=O)cc(COC(=O)C(c3ccccc3)c3ccccc3)nc2s1	inactive: -8.64%
CCc1ccc(CNC(=O)CCCN2C(=O)c3cccnc3Oc3ccc(Cl)cc32)cc1	inactive: -12.7%
Cc1cc(OCCCSc2nc(-c3ccc(C(C)(C)C)cc3)nc3cc(=O)[nH]n23)ccc1Cl	inactive: -3.24%
CC(C)(C)c1ccc(-c2nc(SCCCOc3ccccc3)n3[nH]c(=O)cc3n2)cc1	inactive: -2.37%
CCCCN(CCCC)CCNC(=O)c1cn(CC)c2ccc(S(=O)(=O)N(C)C3CCCCC3)cc2c1=O	inactive: -10.3%
CCN(CC)c1cc(C)c2cc(NC(=O)c3cccc(OC)c3)ccc2n1	inactive: -4.41%
CCOc1ccc(CNCc2c(C(=O)O)n(Cc3ccccc3F)c3cc(OC)ccc23)cc1	inactive: 4.98%
Cc1ccc(/C=C/c2onc(C)c2S(=O)(=O)N2CCC(C(=O)N3CCC(N(C)C(C)C)CC3)CC2)cc1	inactive: -9.47%
CC1CCCN(CCCNC(=O)c2ccc3c(c2)N(Cc2ccccc2F)C(=O)c2ccccc2S3(=O)=O)C1 (stereo not drawn)	inactive: -12.7%

Entries above that contain a COOH group, in the order listed:
Structure (SMILES)	activity change, negative = inhibition
COc1ccc(-c2coc3c2c(C)cc2oc(=O)c(CC(=O)O)c(C)c23)cc1	inactive: -15.3%
CCOc1ccc(CNCc2c(C(=O)O)n(Cc3ccccc3F)c3cc(OC)ccc23)cc1	inactive: 4.98%

Remaining list, next part:

Structure (SMILES)	activity change, negative = inhibition
COCCCNC(=O)c1oc2c(c1C)-c1nn(Cc3cccc(Cl)c3)cc1CC2	inactive: -14.6%
CCN(CCCNC(=O)c1cc2c(=O)n(C)c3ccccc3c2s1)Cc1ccccc1	inactive: -3.53%
Cc1ccc2c(c1)C(c1ccc(F)cc1)N(C(=O)COc1ccc(Cl)cc1Cl)CC(=O)N2 (stereo not drawn)	inactive: -0.309%
Cc1[nH]c2ccccc2c1C1(O)C(=O)N(Cc2ccccc2Cl)c2ccccc21 (stereo not drawn)	inactive: -8.54%
Cc1nc2nc(SCC(=O)NC3CCC(C)CC3)nn2c(C)c1Cc1ccccc1 (stereo not drawn)	inactive: -4.48%
Cc1ccc(-c2cn(-c3cccc(Cl)c3)c(S(=O)(=O)CC(=O)Nc3cccc(C)c3)n2)cc1	inactive: -10.9%
CCn1cc(C(=O)NCCCN2CCCC(C)C2)c(=O)c2cc(S(=O)(=O)N(C)C3CCCCC3)ccc21 (stereo not drawn)	inactive: -11.7%
CC1=Nc2cc(C(=O)N3CCC(C)CC3)ccc2Sc2ccc(Cl)cc21	inactive: -3.16%
CCn1cc(C(=O)NCCCOC)c(=O)c2cc(S(=O)(=O)N3CCc4ccccc4C3)ccc21	inactive: -9.97%
CN(C(=O)c1ccc2c(Cl)c3c(nc2c1)CCC3)c1ccccc1F	inactive: -8.37%
COc1ccccc1C(=O)Nc1ccc(C(=O)OCc2cc(=O)n3nc(C)sc3n2)cc1	inactive: -4.95%
COc1ccccc1Cn1cc(C(=O)c2ccccc2)c(=O)c2cc(OC)c(OC)cc21	inactive: -10.3%
CC1CCCCN1CCNC(=O)c1ccc(Cn2c(SCc3ccccc3)nc3cccnc32)cc1 (stereo not drawn)	inactive: -1.41%
COc1ccccc1C(=O)Nc1nnc(SCc2cc(=O)c3ccccc3[nH]2)s1	inactive: 0.423%
C=Cc1ccc(CN2C(=O)N(c3ccc(C)c(C)c3)S(=O)(=O)c3ccccc32)cc1	inactive: -4.6%
CCc1ccc(C(c2ccccc2)c2c(C)[nH]c3ccccc23)s1 (stereo not drawn)	inactive: -1.17%
CCc1ccccc1NC(=O)CN(c1ccccc1OC)S(=O)(=O)c1ccc(C)cc1	inactive: -3.37%
Cc1ccc(C)c(N2CCN(C(=O)c3cc4ccc5cccnc5c4[nH]3)CC2)c1	inactive: -15.2%
O=C(CC1N=C2c3ccccc3N=C(SCc3ccc(Cl)cc3)N2C1=O)NCCc1ccccc1 (stereo not drawn)	inactive: 4.8%
CC(=O)N1CCc2c(sc3c2c(=O)n(CCc2ccccc2)c(=O)n3Cc2ccc(F)cc2)C1	inactive: -4.25%
CCOC(=O)c1ccccc1NC(=O)N(Cc1ccc(CC)cc1)Cc1cn[nH]c1-c1ccc(OC)cc1	inactive: -10.9%
Cc1cccc(CN2CCC(CNc3ncnc4onc(-c5ccc(Cl)cc5)c34)CC2)c1	inactive: -4.32%
Cc1ccccc1NC(=O)c1ccc(N(Cc2ccccc2)S(C)(=O)=O)cc1	inactive: 4.85%
COc1ccc(CCN2CCC(CNC(=O)c3cnn(-c4cccc(Cl)c4)c3C3CCN(C(=O)OC(C)(C)C)CC3)CC2)cc1	inactive: -5.53%
Cc1ccc(NC(=O)c2c(NC(=O)C(F)(F)F)sc3c2CCCCC3)cc1	inactive: 3.35%
CCOc1ccc(-c2nc(SCC(=O)Nc3cc(F)ccc3F)n3[nH]c(=O)cc3n2)cc1	inactive: 3.9%

Structure (SMILES)	activity change, negative = inhibition
Cc1ccc(CSc2nc(-c3ccccc3C)nc3c2Cc2c(CO)cnc(C)c2O3)cc1	inactive: -0.539%
Cc1ccc(C)c(Cn2c(=O)n(CC3CCC(C(=O)N4CCOCC4)CC3)c(=O)c3sccc32)c1 (stereo not drawn)	inactive: 0.301%
COc1ccc(CN(Cc2ccco2)C(=O)COc2ccc(Cl)cc2C)cc1	inactive: -10.8%
Cc1ccccc1Cn1nnc2c(=O)[nH]c(C3CCCN(C(=O)c4ccc(C(C)(C)C)cc4)C3)nc21 (stereo not drawn)	inactive: -9.08%
Cc1c(C(=O)N(C)Cc2ccccc2)sc2nc(-c3ccc(F)cc3)cn12	inactive: -10.1%
CCOC(=O)c1c(C)oc2nc(C)nc(N(CC(C)C)CC(C)C)c12	inactive: -17.5%
C=CCc1c(C)nc2nc(SCC(=O)Nc3cccc(Cl)c3)nn2c1C	inactive: 7.28%
CCCN1CCN(c2ncnc3sc(C(=O)Nc4ccc(C(C)C)cc4)c(C)c23)CC1	inactive: -1.46%
Cc1ccc(C)c(N2CCN(C(=O)c3cn(CC(C)C)c(=O)c4c3c3ccccc3n4C)CC2)c1	inactive: -15.8%
Cc1ccc(C)c(NC(=O)CSc2nccn2-c2cccc(C)c2C)c1	inactive: -9.11%
Cc1nn(-c2nc(-c3ccccc3)cc(C(F)(F)F)n2)c(C)c1Cl	inactive: -4.92%
CCCCN(C)CC(O)Cn1cc(/C=C/C(=O)c2ccc(Br)cc2)c2ccccc21 (stereo not drawn)	inactive: -9.1%
COc1cccc(-c2cc(C(F)(F)F)nc(NCCc3ccc(OC)c(OC)c3)n2)c1	inactive: -15.3%
Cc1ccc(-n2ncc(C(=O)NCc3ccco3)c2C2CCN(C(=O)OC(C)(C)C)CC2)cc1C	inactive: -6.41%
CCN(CC)S(=O)(=O)c1ccc(C(=O)NCCSc2c(-c3ccccc3)[nH]c3ccccc23)cc1	inactive: -2.51%
CCc1ccc(Nc2nc3ccccc3nc2NS(=O)(=O)c2ccccc2)cc1	inactive: -2.15%
COc1cccc(Cn2cc(C(=O)c3ccc(Cl)cc3)c(=O)c3ccccc32)c1	inactive: -5.96%
Cc1ccc(Cn2c(CCNC(=O)c3cccc(C)c3)nc3ccccc32)cc1	inactive: -5.72%
COc1ccc(-c2nc3sc(CCNC(=O)c4ccc(Br)o4)c(C)n3n2)cc1	inactive: 1.19%
CCCN(CCC)CCCNC(=O)c1cc2c(=O)n(C)c3ccccc3c2s1	inactive: -5.67%
CCC(C)c1ccc(OCC(=O)Nc2cccc(-c3nc4ncccc4o3)c2)cc1 (stereo not drawn)	inactive: -3.86%
CC(C)(C)OC(=O)N1CCC(c2c(C(=O)NCCN3CCC(Cc4ccccc4)CC3)cnn2-c2cccc(Cl)c2)CC1	inactive: -8.96%
COc1ccc(C2C=C(c3ccccc3)Nc3nc(NS(=O)(=O)c4ccccc4)nn32)cc1 (stereo not drawn)	inactive: 9.56%
Cc1ccc(-c2sc(C(=O)Nc3ccc(Br)cc3)cc2CC(=O)O)cc1	inactive: 8.68%
CCn1c(=O)c2cc(C(=O)N(CCCOC(C)C)Cc3ccco3)sc2c2ccccc21	inactive: -6.49%
COc1cccc(CC(=O)Nc2ccc3nc(N4CCC(C)CC4)cc(C)c3c2)c1	inactive: -7.49%

Reformatted: results already given.
Structure (SMILES) | activity change, negative = inhibition
Cc1cccc(CN2CCC(CNc3ncnc4onc(-c5ccc(Cl)cc5)c34)CC2)c1 | inactive: -4.32%
Cc1nn(-c2nc(-c3ccccc3)cc(C(F)(F)F)n2)c(C)c1Cl | inactive: -4.92%

From PubChem BioAssay AID1347431 (National Center for Advancing Translational Sciences (NCATS), 2020)
